Measurements taken from publication PMC9326220.
No constants are given. Whether binding was seen depends on the method and setting. Binding seen in cells or lysates may run through a third protein. For part of these data: Binding can be weak; no strength is given. Tags and fused reporters may be left off the sequences shown.

Tests used:
[1] = target: T1, NECAB2-Flag (mouse) (UniProt Q91ZP9); test: co-IP; transiently transfected HEK293 cells lysed in NETT buffer (50 mM Tris-HCl, 150 mM NaCl, 0.1 mM EDTA, 1% Triton X-100); supernatant with mouse anti-Myc, anti-EGFP or anti-Flag antibody overnight at 4°C, protein A/G agarose 4 h, 5 washes; immunoblot; normal mouse IgG and tag-only vector as controls
T1 sequence: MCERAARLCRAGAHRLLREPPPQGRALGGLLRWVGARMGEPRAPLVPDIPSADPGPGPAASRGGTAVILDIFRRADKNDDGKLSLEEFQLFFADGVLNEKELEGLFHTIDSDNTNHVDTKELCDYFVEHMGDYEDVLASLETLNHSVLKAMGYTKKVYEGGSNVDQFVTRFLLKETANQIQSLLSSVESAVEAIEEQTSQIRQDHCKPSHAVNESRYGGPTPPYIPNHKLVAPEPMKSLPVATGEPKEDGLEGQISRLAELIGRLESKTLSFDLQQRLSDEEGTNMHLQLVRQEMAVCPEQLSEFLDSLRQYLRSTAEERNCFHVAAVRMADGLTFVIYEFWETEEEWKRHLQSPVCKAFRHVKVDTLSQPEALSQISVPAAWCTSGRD

[2] = target: T2, Flag-ABM (antibiotic biosynthesis monooxygenase domain of NECAB2) (mouse) (UniProt Q91ZP9); test: as above
T2 sequence: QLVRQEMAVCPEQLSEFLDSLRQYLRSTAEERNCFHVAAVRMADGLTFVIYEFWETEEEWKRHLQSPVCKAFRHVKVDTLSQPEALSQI

Row | Substance | binding [1] | binding [2]
1 | EGFP-EF (EF-hand domain of NECAB2) (mouse) (domain or fragment) | no binding | 
2 | EGFP-NHR (NECAB homology region of NECAB2) (mouse) (domain or fragment) | binds | no binding
